These are yes or no findings as the source states them, for the method shown. Some binding calls cover weakened binding; strength is not graded here. Where a sequence is shown, tags or fusion partners need not be part of it.
Molecular target: recombinant, full length human Galectin-9 (R&D Systems 2045-GA) (human) (UniProt O00182)
Test: ELISA, full length galectin-9 immobilized, CD206 titrated

Amino acid sequences for entries named in this document (tags omitted). A change or cut given only in a name is not applied to a line headed by its entry. Chains listed by the source or under a name are the forms on record and can include a tag or linker.
recombinant, full length human Galectin-9 (R&D Systems 2045-GA) (O00182, form named): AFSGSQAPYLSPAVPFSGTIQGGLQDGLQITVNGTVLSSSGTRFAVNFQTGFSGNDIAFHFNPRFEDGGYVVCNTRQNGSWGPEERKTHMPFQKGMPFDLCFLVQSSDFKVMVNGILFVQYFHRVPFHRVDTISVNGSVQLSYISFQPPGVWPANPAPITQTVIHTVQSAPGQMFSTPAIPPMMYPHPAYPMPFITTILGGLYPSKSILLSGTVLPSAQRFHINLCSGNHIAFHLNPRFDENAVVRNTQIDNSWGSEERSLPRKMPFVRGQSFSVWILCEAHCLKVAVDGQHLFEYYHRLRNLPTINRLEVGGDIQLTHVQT

B1: recombinant, His-tagged CD206 (receptor, human, UniProt P22897 19-1383, looked up)
chain: LLDTRQFLIYNEDHKRCVDAVSPSAVQTAACNQDAESQKFRWVSESQIMSVAFKLCLGVPSKTDWVAITLYACDSKSEFQKWECKNDTLLGIKGEDLFFNYGNRQEKNIMLYKGSGLWSRWKIYGTTDNLCSRGYEAMYTLLGNANGATCAFPFKFENKWYADCTSAGRSDGWLWCGTTTDYDTDKLFGYCPLKFEGSESLWNKDPLTSVSYQINSKSALTWHQARKSCQQQNAELLSITEIHEQTYLTGLTSSLTSGLWIGLNSLSFNSGWQWSDRSPFRYLNWLPGSPSAEPGKSCVSLNPGKNAKWENLECVQKLGYICKKGNTTLNSFVIPSESDVPTHCPSQWWPYAGHCYKIHRDEKKIQRDALTTCRKEGGDLTSIHTIEELDFIISQLGYEPNDELWIGLNDIKIQMYFEWSDGTPVTFTKWLRGEPSHENNRQEDCVVMKGKDGYWADRGCEWPLGYICKMKSRSQGPEIVEVEKGCRKGWKKHHFYCYMIGHTLSTFAEANQTCNNENAYLTTIEDRYEQAFLTSFVGLRPEKYFWTGLSDIQTKGTFQWTIEEEVRFTHWNSDMPGRKPGCVAMRTGIAGGLWDVLKCDEKAKFVCKHWAEGVTHPPKPTTTPEPKCPEDWGASSRTSLCFKLYAKGKHEKKTWFESRDFCRALGGDLASINNKEEQQTIWRLITASGSYHKLFWLGLTYGSPSEGFTWSDGSPVSYENWAYGEPNNYQNVEYCGELKGDPTMSWNDINCEHLNNWICQIQKGQTPKPEPTPAPQDNPPVTEDGWVIYKDYQYYFSKEKETMDNARAFCKRNFGDLVSIQSESEKKFLWKYVNRNDAQSAYFIGLLISLDKKFAWMDGSKVDYVSWATGEPNFANEDENCVTMYSNSGFWNDINCGYPNAFICQRHNSSINATTVMPTMPSVPSGCKEGWNFYSNKCFKIFGFMEEERKNWQEARKACIGFGGNLVSIQNEKEQAFLTYHMKDSTFSAWTGLNDVNSEHTFLWTDGRGVHYTNWGKGYPGGRRSSLSYEDADCVVIIGGASNEAGKWMDDTCDSKRGYICQTRSDPSLTNPPATIQTDGFVKYGKSSYSLMRQKFQWHEAETYCKLHNSLIASILDPYSNAFAWLQMETSNERVWIALNSNLTDNQYTWTDKWRVRYTNWAADEPKLKSACVYLDLDGYWKTAHCNESFYFLCKRSDEIPATEPPQLPGRCPESDHTAWIPFHGHCYYIESSYTRNWGQASLECLRMGSSLVSIESAAESSFLSYRVEPLKSKTNFWIGLFRNVEGTWLWINNSPVSFVNWNTGDPSGERNDCVALHASSGFWSNIHCSSYKGYICKRPKIIDAKPTHELLTTKADTRKMDPSK
binding: binds

Source: patent US20240190970A1
